PubChem BioAssay AID504467 (National Center for Advancing Translational Sciences (NCATS), 2011)
About 7,700 (2.3%) of roughly 330,000 compounds were called active. The inconclusive results got no clear call from the source; some entries with a clear call stand among them for comparison. Calls come from the whole dose curve; as a rule, active = well fitted inhibition curve with a large enough effect; inconclusive = small, poorly fitted or top-dose-only effect, or effect the other way; inactive = flat fitted curve, though single readings scatter. Potencies beside an inconclusive call are fits to weak or partial responses and may not hold up.

Assay: qHTS screen for small molecules that inhibit ELG1-dependent DNA repair in human embryonic kidney (HEK293T) cells expressing luciferase-tagged ELG1; note: nearly all actives have a fitted effect of over 55% in size
Conditions: HEK293T ELG1-luciferase reporter, luminescence, 16 h, DNA damage induced by 5-fluorouridine; series mostly up to 46.1 µM
Method in brief: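 DMSO vehicle served as the neutral condition. Each well held 2,000 cells given 5-fluorouridine plus compound; after 16 hr at 37 °C/5% CO2, ONE-Glo was added and luciferase measured 30 min later.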
Potency is the fitted concentration of half-maximal effect.

Row | Structure (SMILES) | Potency
1 | CN1CCN(c2ccc(NC(=O)c3cc(Cl)c4c(c3)OCCO4)cc2)CC1 | inconclusive: 18.3 µM [activator, partial curve]
2 | N#C/C(=C/c1ccc([N+](=O)[O-])cc1)C(N)=O | inactive
3 | Cc1cc(C)n2nc(-c3cccc(Br)c3)cc2n1 | inconclusive: 11.2 µM [activator, partial curve, poor fit]
4 | COc1ccc(NC(=O)c2sc3nc(N4CCOCC4)c4c(c3c2N)CC(C)(C)OC4)c(OC)c1 | inconclusive: 0.651 µM [inhibitor, full curve]
5 | CN(C)CCSc1nc2cc(S(=O)(=O)N3CCCCC3)ccc2o1 | inactive
6 | CCN(CC)c1ccc(NC(=O)c2cnn(CC)c2)cc1 | inconclusive: 10 µM [activator, partial curve]
7 | CCc1nc(CN2CCCC(C(=O)c3ccc4c5c(cccc35)CC4)C2)c(C)[nH]1 (stereo not drawn) | inconclusive: 23.1 µM [inhibitor, single point]
8 | COc1cccc(-c2nc(-c3ccc(NC(=O)c4cccnc4)cc3)no2)c1 | inactive
9 | O=C(O)COc1ccc(-c2nccc(-c3ccccn3)n2)cc1 | inconclusive: 10.3 µM [activator, partial curve]
10 | Clc1cccc(Cl)c1Cn1nnc(-c2cccs2)n1 | inconclusive: 6.51 µM [activator, partial curve]
11 | CCOc1c(Cl)cc(C(=O)Nc2cccc(C(=O)O)c2)cc1Cl | inconclusive: 1.64 µM [activator, partial curve]
12 | COc1cc(/C=C(\C#N)c2nc3ccc(C)cc3[nH]2)cc([N+](=O)[O-])c1O | inconclusive: 23.1 µM [activator, partial curve]
13 | Cc1nc(-c2ccncc2)sc1C(=O)Nc1ccc(Cl)cc1 | inconclusive: 18.3 µM [inhibitor, partial curve, poor fit]
14 | N#CC1=C(N)Oc2c(ccc3cccnc23)C1c1ccncc1 (stereo not drawn) | active: 9.2 µM
15 | Cc1ccc(SCCOCCN2CCc3ccccc3C2)cc1 | inactive
16 | CCn1c(=O)cc(SCC(=O)N2CCC(C)CC2)c2ccccc21 | inconclusive: 5.8 µM [activator, single point]
17 | COCCNC(=S)N/N=C/c1ccc(OCc2ccc(C(=O)OC)cc2)c(OC)c1 | inactive
18 | Cc1ccc(N/C(N)=N/c2nc(CSc3ccccn3)cc(=O)[nH]2)c(C)c1 | inconclusive: 23.1 µM [inhibitor, single point]
19 | CC(C)CNC(=O)C(=O)NNC(=O)C1CCCCC1 | inconclusive: 29.1 µM [activator, single point]
20 | CCOC(=O)C1CCCN(S(=O)(=O)c2ccc(S(=O)(=O)N3CCCC3)cc2)C1 (stereo not drawn) | inactive
21 | CCN(CC)CCOC(=O)c1cccc(OC)c1 | inconclusive: 29.1 µM [activator, single point]
22 | O=C(NCCN1CCc2ccccc2C1)Nc1ccc([N+](=O)[O-])cc1 | inconclusive: 23.1 µM [inhibitor, single point]
23 | Cc1ccc(/C=N/NC(=O)CCCOc2ccc(Cl)cc2Cl)cc1[N+](=O)[O-] | inconclusive: 25.9 µM [inhibitor, single point]

No new results follow: an excerpt of the list.
Row | Structure (SMILES) | Potency
4 | COc1ccc(NC(=O)c2sc3nc(N4CCOCC4)c4c(c3c2N)CC(C)(C)OC4)c(OC)c1 | inconclusive: 0.651 µM [inhibitor, full curve]
5 | CN(C)CCSc1nc2cc(S(=O)(=O)N3CCCCC3)ccc2o1 | inactive
6 | CCN(CC)c1ccc(NC(=O)c2cnn(CC)c2)cc1 | inconclusive: 10 µM [activator, partial curve]
7 | CCc1nc(CN2CCCC(C(=O)c3ccc4c5c(cccc35)CC4)C2)c(C)[nH]1 (stereo not drawn) | inconclusive: 23.1 µM [inhibitor, single point]
8 | COc1cccc(-c2nc(-c3ccc(NC(=O)c4cccnc4)cc3)no2)c1 | inactive
9 | O=C(O)COc1ccc(-c2nccc(-c3ccccn3)n2)cc1 | inconclusive: 10.3 µM [activator, partial curve]
10 | Clc1cccc(Cl)c1Cn1nnc(-c2cccs2)n1 | inconclusive: 6.51 µM [activator, partial curve]
11 | CCOc1c(Cl)cc(C(=O)Nc2cccc(C(=O)O)c2)cc1Cl | inconclusive: 1.64 µM [activator, partial curve]
12 | COc1cc(/C=C(\C#N)c2nc3ccc(C)cc3[nH]2)cc([N+](=O)[O-])c1O | inconclusive: 23.1 µM [activator, partial curve]
13 | Cc1nc(-c2ccncc2)sc1C(=O)Nc1ccc(Cl)cc1 | inconclusive: 18.3 µM [inhibitor, partial curve, poor fit]
14 | N#CC1=C(N)Oc2c(ccc3cccnc23)C1c1ccncc1 (stereo not drawn) | active: 9.2 µM
15 | Cc1ccc(SCCOCCN2CCc3ccccc3C2)cc1 | inactive
16 | CCn1c(=O)cc(SCC(=O)N2CCC(C)CC2)c2ccccc21 | inconclusive: 5.8 µM [activator, single point]
17 | COCCNC(=S)N/N=C/c1ccc(OCc2ccc(C(=O)OC)cc2)c(OC)c1 | inactive
18 | Cc1ccc(N/C(N)=N/c2nc(CSc3ccccn3)cc(=O)[nH]2)c(C)c1 | inconclusive: 23.1 µM [inhibitor, single point]
19 | CC(C)CNC(=O)C(=O)NNC(=O)C1CCCCC1 | inconclusive: 29.1 µM [activator, single point]
20 | CCOC(=O)C1CCCN(S(=O)(=O)c2ccc(S(=O)(=O)N3CCCC3)cc2)C1 (stereo not drawn) | inactive
21 | CCN(CC)CCOC(=O)c1cccc(OC)c1 | inconclusive: 29.1 µM [activator, single point]
22 | O=C(NCCN1CCc2ccccc2C1)Nc1ccc([N+](=O)[O-])cc1 | inconclusive: 23.1 µM [inhibitor, single point]
23 | Cc1ccc(/C=N/NC(=O)CCCOc2ccc(Cl)cc2Cl)cc1[N+](=O)[O-] | inconclusive: 25.9 µM [inhibitor, single point]

Following part

Row | Structure (SMILES) | Potency
24 | COc1ccc(-c2nc(Cn3c(SCc4ccc(F)cc4)nc4ccncc43)c(C)o2)cc1OC | inconclusive: 8.2 µM [inhibitor, partial curve]
25 | O=C(NN=C(Cc1ccccc1)Cc1ccccc1)c1ccccc1O | inconclusive: 4.11 µM [inhibitor, partial curve, poor fit]
26 | S=c1[nH]nc(-c2cccc3ccccc23)n1-c1cccnc1 | inactive
27 | Cc1ccc(-c2nn(-c3ccccc3)cc2/C=N/NC(=O)c2ccc(Br)o2)cc1 | inconclusive: 18.4 µM [inhibitor, partial curve, poor fit]
28 | Nc1ccc(C(=O)Nc2cccc(NC(=O)c3ccc(N)cc3)c2)cc1 | inactive
29 | COc1ccc(-c2cc(-c3ccco3)[nH]c(=O)c2C#N)cc1 | inconclusive: 4.11 µM [inhibitor, full curve]
30 | COc1cccc(N/C(N)=N/c2nc(C(F)(F)F)cc(C(F)(F)F)n2)c1 | inconclusive: 20.6 µM [inhibitor, single point]
31 | CCN1C(=O)c2cccc3c(S(=O)(=O)N(C(=O)c4ccncc4)c4ccc(OC)cc4)ccc1c23 | inactive
32 | COc1cc(C(=O)NC(=S)Nc2ccc([N+](=O)[O-])cc2C)cc(OC)c1OC | inactive
33 | O=C(NC(=C(Cl)Cl)S(=O)(=O)c1ccc(Cl)cc1)c1ccccc1 | inconclusive: 32.6 µM [inhibitor, single point]
34 | CCOc1ccc(C(=O)CC(C(=O)O)N2CCN(Cc3ccccc3)CC2)cc1 (stereo not drawn) | inactive
35 | CCOC(=O)c1ccccc1NC(=O)Cn1c(-c2nonc2N)nc2ccccc21 | inconclusive: 4.61 µM [inhibitor, single point]
36 | CCCc1ccc(-c2c(C)sc(NC(=O)c3ccnn3C)c2C#N)cc1 | active: 18.4 µM
37 | COc1ccc(CCNC(=O)c2cc(CC(C)C)on2)cc1OC | inconclusive: 16.4 µM [inhibitor, single point]
38 | CN(Cc1ccccc1)C(=O)c1ccc(NC(=O)Cc2cccc(NC(=O)C3CCN(C(=O)C4CCCC4)CC3)c2)cc1 | active: 10.3 µM
39 | Oc1[nH]c(=S)sc1C=C1N=c2ccccc2=N1 | inconclusive: 23.1 µM [activator, partial curve]
40 | Cc1cc(NC(=O)CN2C(=O)NC3(CCCCCC3)C2=O)ccc1Br | inconclusive: 16.4 µM [inhibitor, partial curve, poor fit]
41 | COc1cccc(NC(=S)NC(=O)c2c(Cl)c(C)nn2C)c1 | inconclusive: 13 µM [activator, partial curve]
42 | Nc1ncnc2nc(SCc3ccc(Cl)cc3Cl)[nH]c12 | inconclusive: 18.4 µM [activator, single point]
43 | COC(=O)c1[nH]c2cc(C)ccc2c1NC(=O)CN1CCCc2ccccc21 | inconclusive: 3.55 µM [activator, full curve, poor fit]
44 | O=C(Nc1ccc(Nc2ccccc2)cc1)c1ccco1 | inconclusive: 8.2 µM [activator, partial curve]
45 | O=C(c1ccc(CS(=O)Cc2ccc(Cl)cc2)o1)N1CCN(c2ccc(F)cc2)CC1 (stereo not drawn) | active: 23.1 µM
46 | CC(C)(C)OC(=O)n1cc(/C=N/NC(=O)c2ccco2)c2ccccc21 | inconclusive: 16.4 µM [activator, partial curve]

Row | Structure (SMILES) | Potency
47 | COc1ccccc1NC(=O)Nc1nnc(Cc2ccccc2F)s1 | inconclusive: 6.51 µM [activator, single point]
48 | CN(C)CCCN(C(=O)c1ccc(S(=O)(=O)N2CCc3ccccc3C2)cc1)c1nc2c(F)cc(F)cc2s1 | inactive
49 | Cc1cc(OCC(=O)NCc2ccncc2)ccc1Cl | inactive
50 | Cc1ncc(CO)c(/C=N/NC(=O)c2ccc(Br)cc2)c1O | inconclusive: 2.31 µM [inhibitor, partial curve, poor fit]
51 | CC(N=C1NS(=O)(=O)c2ccccc21)C(=O)NCc1ccc(F)cc1 (stereo not drawn) | inactive
52 | Cc1cc(-c2csc(NC(=O)c3ccc(=O)n(C)n3)n2)c(C)n1CC1CCCO1 (stereo not drawn) | inactive
53 | C/C(N)=C(/C#N)C(=O)COC(=O)c1cc(C)n(-c2ccc(F)cc2)c1C | inconclusive: 4.61 µM [activator, partial curve]
54 | O=C(O)CSc1nnc(-c2cccc(S(=O)(=O)N3CCCCC3)c2)o1 | inconclusive: 23.1 µM [inhibitor, partial curve, poor fit]
55 | CCc1ccc2nc(N(CCCN(C)C)C(=O)c3ccc(S(=O)(=O)N4CCCC4)cc3)sc2c1 | inconclusive: 23.1 µM [activator, single point]
56 | CCCNC(=O)C(Cc1ccccc1F)NC(=O)c1ccccn1 (stereo not drawn) | inactive
57 | Cc1ccc2nc(N/N=C/c3ccco3)cc(C)c2c1 | inconclusive: 5.17 µM [activator, partial curve]
58 | CC(C)c1nc(C(=O)N2CCCC(N3CCN(c4cccc(Cl)c4)CC3)C2)cs1 (stereo not drawn) | inconclusive: 20.6 µM [inhibitor, single point]
59 | CCNC(=O)COc1ccc(-c2ccccc2)cc1 | inconclusive: 20.6 µM [activator, partial curve]
60 | c1ccc(NCC2OCc3ccccc3CO2)cc1 | inconclusive: 16.4 µM [activator, partial curve]
61 | COc1ccc(C(=O)CSc2nnc(-c3ccccc3)o2)cc1 | inconclusive: 25.9 µM [activator, partial curve, poor fit]
62 | O=C(/C=C/c1ccc(F)cc1)c1cc(Br)ccc1O | inconclusive: 20.6 µM [activator, single point]
63 | O=C(CSc1ccc(-c2ccc(-n3cccn3)cc2)nn1)Nc1ccc([N+](=O)[O-])cc1 | inconclusive: 7.94 µM [activator, partial curve, poor fit]
64 | Cc1ccc(NC(=O)CSc2nc3ncc(Cl)cc3[nH]2)c(C)c1 | inactive
65 | Fc1ccc(Nc2nc(N3CCOCC3)nc(N3CCOCC3)n2)cc1 | inconclusive: 9.2 µM [inhibitor, partial curve]
66 | COC(=O)c1ccc(NC(=O)CSC2=Nc3ccccc3C3CC=NN23)cc1 (stereo not drawn) | inconclusive: 29.1 µM [inhibitor, single point]
67 | O=C(CSc1nnc(CNc2ccc(F)cc2)n1Cc1ccco1)N1CCOCC1 | inactive
68 | CCN(CC)CCCNC(=O)C1CCN(C(=O)c2oc3cc4sc(N(C)C)nc4cc3c2C)CC1 | inconclusive: 16.4 µM [activator, partial curve]
